# Measurements published in PubChem BioAssay AID2551 (National Center for Advancing Translational Sciences (NCATS), 2010).
# Chains of the proteins cited; added tags and fusions are not shown. Lines headed by an entry give the natural chain unless they say otherwise; changes in a name come on top.
# UniProt P51450: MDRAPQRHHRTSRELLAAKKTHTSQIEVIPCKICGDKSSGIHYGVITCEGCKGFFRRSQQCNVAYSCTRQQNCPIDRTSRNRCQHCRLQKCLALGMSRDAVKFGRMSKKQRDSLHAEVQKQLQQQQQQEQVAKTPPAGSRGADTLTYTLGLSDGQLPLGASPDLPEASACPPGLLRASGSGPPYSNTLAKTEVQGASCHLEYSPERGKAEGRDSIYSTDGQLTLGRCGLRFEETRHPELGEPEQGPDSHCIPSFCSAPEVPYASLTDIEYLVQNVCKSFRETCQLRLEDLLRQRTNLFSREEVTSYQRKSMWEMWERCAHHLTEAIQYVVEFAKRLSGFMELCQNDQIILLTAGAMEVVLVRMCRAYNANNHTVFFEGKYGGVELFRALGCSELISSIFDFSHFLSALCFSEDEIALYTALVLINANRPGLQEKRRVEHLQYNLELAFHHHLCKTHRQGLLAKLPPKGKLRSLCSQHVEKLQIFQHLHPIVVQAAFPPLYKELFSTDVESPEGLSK
# Screen size: about 310,000 compounds; about 17,000 (5.5%) were called active. Inconclusive means that the source gave no clear call. Such entries were picked first, then a sample of the others. Calls follow the shape of the dose curve; as a rule, active = well fitted inhibition curve with a large enough effect; inconclusive = small, poorly fitted or top-dose-only effect, or effect the other way; inactive = no such curve, though single readings can be large or run the other way. A potency beside an inconclusive call is a rough fit, not a confirmed value.
# Target: Nuclear receptor ROR-gamma (Mus musculus) (UniProt P51450)
# Assay: qHTS for inhibitors of ROR gamma transcriptional activity; also: nearly all actives have a fitted effect of over 60% in size
# Details: Drosophila S2 Gal4-RORgamma UAS-luciferase reporter, 20 h; activity change, negative = inhibition: at 53.6 µM (top of the series)
# How it was run: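 Drosophila Schneider cells stably carrying a metallothionein-driven Gal4 DBD–ROR gamma fusion and a UAS-Photinus luciferase reporter were exposed to compound for 1 hr, then induced with copper sulfate (700 uM final) for 20 hr at ambient temperature before luminescence reading.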
# % is scaled to controls: 0 for no effect and ±100 for the full control effect; potency is read from the fitted curve at half-maximal effect.
Structure (SMILES),Potency,"activity change, negative = inhibition"
Cc1ccc(N/C=C/C(=O)c2ccccc2)cc1C,active: 0.282 µM,
COc1ccc(C2/C=C\CN(C(=O)C3CC3)[C@H](Cc3ccccc3)C(=O)N2Cc2ccc(F)cc2)cc1 (stereo not given in full),active: 11.2 µM,
CCn1c(-c2ccccc2)csc1=Nc1ccc(O)cc1,"inconclusive: 11.2 µM [activator, single point]",
COc1ccc(COC(=O)N/N=C2/C[C@@H](O)[C@@H](O)[C@@H]3[C@@H]4C(=O)N(Cc5ccc6c(c5)OCO6)C(=O)[C@H]4CC[C@@H]23)cc1,,inactive: -0.932% [at 10 µM]
Cc1ccc(CCc2nnc(SCC(=O)Nc3cccc(Cl)c3)n2-c2ccccc2)o1,"inconclusive: 20 µM [inhibitor, single point]",
Fc1ccc(NC(=S)NCc2ccccc2Cl)cc1,active: 7.08 µM,
COc1ccc(C)cc1Nc1nc(C)nc2c1oc1ccccc12,"inconclusive: 7.94 µM [inhibitor, single point]",
CC(=O)Nc1ccc(N=Cc2c(O)ccc3ccccc23)cc1,"inconclusive: 35.5 µM [inhibitor, single point]",
O=C1N/C(=N/NC(=O)c2cccc3ccccc23)S/C1=C\c1ccccc1OCc1ccccc1,active: 0.631 µM,
O=C(N/N=C1/CC(c2ccccc2)Oc2ccccc21)C1CC1 (stereo not given),active: 11.2 µM,
O=C1CC(N2CCC(C(=O)N3CCCCC3)CC2)C(=O)N1 (stereo not given),"inconclusive: 35.5 µM [inhibitor, single point]",
O=c1[nH]c(/C=C/c2ccccc2OC(F)F)nc2c1cnn2-c1ccccc1,"inconclusive: 35.5 µM [inhibitor, single point]",
Fc1ccc(-c2csc3ncnc(Cl)c23)cc1,"inconclusive: 14.1 µM [inhibitor, partial curve, poor fit]",
CCOC(=O)c1ccc(NC(=S)Nc2ccccn2)cc1,active: 3.16 µM,
CCCCc1c(C)nn(-c2nnc3c4ccccc4n(CC)c3n2)c1C,active: 1.78 µM,
CN(C)CCn1c2ccccc2c2nc3ccc([N+](=O)[O-])cc3cc21,active: 7.94 µM,
Cc1ccc(N2C(=O)Nc3ccc(Br)cc3C2(O)C(=O)NCCN(C)C)cc1C (stereo not given),inactive,
O=C1CCC/C1=C/Nc1ccc2c(c1)OCO2,"inconclusive: 7.08 µM [inhibitor, partial curve]",
COc1ccc2cnnc(SCC(=O)Nc3ccc(C(C)=O)cc3)c2c1OC,inactive,
CN(C)S(=O)(=O)c1ccc(NC(=O)c2cc3ccccc3o2)cc1,"inconclusive: 6.31 µM [activator, partial curve]",
COc1cccc2oc(-c3ccccc3)cc(=O)c12,active: 11.2 µM,
Oc1nc(Nc2cccc(Cl)c2)sc1/C=C1\C=Nc2ccccc21,"inconclusive: 31.6 µM [inhibitor, single point]",

# Of the compounds above, 3 contain a furan ring, fused or not:
Structure (SMILES),Potency,"activity change, negative = inhibition"
Cc1ccc(CCc2nnc(SCC(=O)Nc3cccc(Cl)c3)n2-c2ccccc2)o1,"inconclusive: 20 µM [inhibitor, single point]",
COc1ccc(C)cc1Nc1nc(C)nc2c1oc1ccccc12,"inconclusive: 7.94 µM [inhibitor, single point]",
CN(C)S(=O)(=O)c1ccc(NC(=O)c2cc3ccccc3o2)cc1,"inconclusive: 6.31 µM [activator, partial curve]",

# (list continues)

Structure (SMILES),Potency,"activity change, negative = inhibition"
Cc1cc(OCC(=O)NNC(=S)NC(=O)c2ccc(Br)o2)ccc1Cl,active: 7.94 µM,
O=C(O)CCC(=O)OC[C@@H](NC(=O)C(Cl)Cl)C(O)c1ccc([N+](=O)[O-])cc1 (stereo not given in full),inactive,
O=C(Cc1cccc2ccccc12)Nc1nc2ccccc2[nH]1,active: 7.94 µM,
C#CCOCCOCCOCCNc1nc(N2CCN(C(=O)[C@H]([C@@H](C)CC)n3cc([C@@H](N)CC(C)C)nn3)CC2)nc(N2CCN(C(=O)[C@H](Cc3cc4ccccc4[nH]3)n3cc([C@@H](N)CC(C)C)nn3)CC2)n1,"inconclusive: 25.1 µM [inhibitor, single point]",
COc1ccc(C2C(C(C)=O)=C(O)C(=O)N2CCc2c[nH]c3ccccc23)cc1 (stereo not given),"inconclusive: 15.8 µM [inhibitor, single point]",
CCN(CC)c1ccc2cc(C(N)=O)c(=N)oc2c1,inactive,
COc1ccc2c(c1)OC/C(=C/c1ccc(OC)c(OC)c1)C2=O,"inconclusive: 1.41 µM [activator, partial curve]",
O=c1c2ccccc2[nH]c(=S)n1Cc1cccs1,active: 1.58 µM,
Cc1cc(S(=O)(=O)c2cc3ccc(O)c(C)c3oc2=O)ccc1F,"inconclusive: 0.0178 µM [activator, full curve, poor fit]",
CCC(C)C(=O)Nc1nc(C)c(-c2csc(Nc3cc(OC)ccc3OC)n2)s1 (stereo not given),"inconclusive: 5.01 µM [activator, single point]",
CC(NC(=O)COC(=O)c1cc(NS(=O)(=O)c2ccc(Cl)c([N+](=O)[O-])c2)ccc1O)C1CC2CCC1C2 (stereo not given),"inconclusive: 15.8 µM [inhibitor, single point]",
Cc1ccc(S(=O)(=O)CCSc2n[nH]c(=O)n2-c2ccc3c(c2)OCCO3)cc1,inactive,
O=C(c1ccc2c3c(cccc13)CC2)N1CCOCC1,inactive,
CCCc1cc(=O)n2[nH]c(C)c(-c3ccc(Cl)cc3)c2n1,"inconclusive: 35.5 µM [inhibitor, single point]",
COC(=O)N/N=C/c1ccccc1OCc1ccccc1,"inconclusive: 3.98 µM [activator, full curve, poor fit]",
COC(=O)c1ccc(C(NC(=O)OCc2ccccc2)/C(=C/[C@@H](C)C(=O)NC2CCCCC2)c2cccnc2)cc1 (stereo not given in full),"inconclusive: 31.6 µM [activator, single point]",
CCOC(=O)c1cc(-c2ccccc2)sc1NC(=O)CC(C)C,"inconclusive: 22.4 µM [activator, single point]",
O=C(O)c1ccccc1SC1CC(=O)N(C2CCCCC2)C1=O (stereo not given),"inconclusive: 35.5 µM [inhibitor, single point]",
CCOC(=O)c1csc(NC(=O)c2cc3ccccc3o2)n1,active: 3.16 µM,
O=C(COc1ccc2ccccc2c1)NC1CC1,"inconclusive: 0.794 µM [activator, single point]",
Cn1c(CNC(=O)c2ccc(F)cc2)cc2ccccc21,"inconclusive: 15.8 µM [activator, single point]",
CCCCN(C(=O)c1cccc(S(=O)(=O)N2CCOCC2)c1)c1c(N)n(CCC)c(=O)[nH]c1=O,inactive,
